Out of some 350,000 compounds screened, about 220 (0.063%) were called active. This list was built around the results that the source calls inconclusive (neither active nor inactive); the mix of calls is not that of the screen. Calls follow the shape of the dose curve; as a rule, active = well fitted activation curve with a large enough effect; inconclusive = small, poorly fitted or top-dose-only effect; inactive = no such curve, though single readings can be large or run the other way. Potencies beside an inconclusive call are fits to weak or partial responses and may not hold up.
Test: qHTS for Activators of Integrin-Mediated Alleviation for Muscular Dystrophy; also: nearly all actives have a fitted effect of over 60% in size;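 as to activation: 100% = response of the positive control SU9516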
Conditions: alpha7betagal myoblasts, beta-gal FDG fluorescence, 48 h; activation: at 38.3 µM (top of the series)
Method in brief: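 alpha7betagal+/- myoblasts (passage 13, 250/well) treated 48 h at 37C with compounds at 1:260 dilution of DMSO stock. Lysed, then beta-galactosidase activity read as FDG fluorescence (ex 480/em 540) after 30 min, with pre-read for autofluorescence.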
Potency is read from the fitted curve at half-maximal effect.

Potency, inconclusive:
Cc1ccc2c(c1)N(CCC(=O)NCC1CCCO1)C(=O)CO2 (centres undefined) 28.2 µM [activator, single point]
CCOC(=O)N1CCN(C(=O)CS(=O)(=O)Cc2nc(-c3ccccc3F)oc2C)CC1 8.91 µM [activator, partial curve, poor fit]
Cc1ccc(S(=O)(=O)NCC(C)n2cncn2)cc1 (centres undefined) 22.4 µM [activator, single point]
CCc1ccc(-c2cc(C)no2)cc1S(=O)(=O)N1CCN(C(=O)c2ccco2)CC1 6.31 µM [activator, partial curve, poor fit]
CC(=O)c1ccc(NC(=O)CSc2nc3nn(-c4ccccc4)c(=O)c-3c3n2CCCCC3)cc1 5.01 µM [activator, single point]
Cc1cc(C)nc(SCC(=O)Nc2nonc2N)n1 0.708 µM [activator, single point]
CCOC(=O)N1CCC(NS(=O)(=O)c2ccccc2)CC1 28.2 µM [activator, single point]
CC(C)CCN1CCN(Cc2ccoc2)CC1CCO (centres undefined) 2.51 µM [activator, single point]
C=C(C)CSc1nnc([C@@H](NC(=O)OC(C)(C)C)C(C)CC)o1 (some centres undefined) 22.4 µM [activator, single point]
Cc1ccc2nc(Nc3ccccc3)c(C=O)c(=O)n2c1 3.16 µM [activator, full curve, poor fit]
COc1cc(C(=O)NCC(c2cccs2)N2CCc3ccccc32)cc(OC)c1OC (centres undefined) 2.82 µM [activator, partial curve, poor fit]
COc1ccc(S(=O)(=O)N/N=C\c2ccccc2F)cc1 28.2 µM [activator, single point]
Oc1ccc(-c2cn3c(n2)SCC3)cc1 5.01 µM [activator, single point]
COCCCN1C(=O)C(=O)/C(=C(/O)c2ccc(C)cc2)C1/C=C/c1ccccc1 (centres undefined) 28.2 µM [activator, single point]
Cc1ccc(/C(O)=C2/C(=O)C(=O)N(CC(=O)O)C2c2ccc([N+](=O)[O-])cc2)cc1 (centres undefined) 15.8 µM [activator, single point]
CC(=O)c1ccc(Oc2ncnc3sccc23)cc1 2.82 µM [activator, partial curve, poor fit]
CC1CCN(S(=O)(=O)c2ccc3c(c2)N(CC(=O)NCCCN2CC(C)CC(C)C2)C(=O)CS3)CC1 (centres undefined) 5.01 µM [activator, single point]
COc1cccc(-c2nc(CCl)cs2)c1OC 0.501 µM [activator, full curve, poor fit]
O=C1NC(=O)C(c2ccc(Cl)cc2)N1 (centres undefined) 11.2 µM [activator, single point]
Cc1ccc(-n2c(-c3ccncc3)n[nH]c2=S)cc1C 3.16 µM [activator, partial curve, poor fit]
O=C(O)c1ccc2c(c1)C(=O)N(NC(=O)c1ccccc1)C2=O 2.82 µM [activator, single point]
FC(F)Oc1ccc(N=C2SCC3CCCCN23)cc1 (centres undefined) 5.01 µM [activator, single point]
Cc1ccc(C(=O)NC(=S)NNC(=O)c2ccccc2)cc1 3.55 µM [activator, partial curve, poor fit]
CSC1=N/C(=C\c2ccccc2Cl)C(=O)N1N(C)C 11.2 µM [activator, single point]
O=C(Cc1ccccc1)NCC1COc2ccccc2O1 (centres undefined) 5.01 µM [activator, single point]
Clc1ccc(CNC2CCN(Cc3ccccc3)CC2)cc1 3.98 µM [activator, single point]
CCCCNC(=O)c1ccccc1NC(=O)c1ccc2c(c1)OCO2 28.2 µM [activator, single point]
CC(=O)NC1=NN(C(C)=O)C(C)(CCS(=O)(=O)c2ccc(Cl)c(Cl)c2)S1 (centres undefined) 11.2 µM [activator, single point]
COc1ccc(C2=NC(=O)/C(=C\c3cc(OC)c(OC)c(OC)c3)O2)cc1 6.31 µM [activator, partial curve, poor fit]
COc1ccc(-c2nc(CN(Cc3cnn(C)c3)C(C)C)c(C)o2)c(OC)c1 11.2 µM [activator, single point]
C=C(C)C1CCC(C)=C1CC(C)(C)/C=N\n1cnnc1 (centres undefined) 1.58 µM [activator, partial curve, poor fit]
O=C(Cn1nnc2ccccc21)c1ccc([N+](=O)[O-])cc1 5.01 µM [activator, single point]
COc1ccc(C2C3C(=O)N(N(C)c4ncc(C(F)(F)F)cc4Cl)C(=O)C3ON2C)cc1 (centres undefined) 3.98 µM [activator, single point]
Cc1ccc2c(c1)C(O)(CC(=O)/C=C/C=C/c1ccccc1)C(=O)N2 (centres undefined) 1 µM [activator, full curve, poor fit]
COc1ccc(CNC(=O)CCCn2c(=S)[nH]c3cc4c(cc3c2=O)OCO4)cc1 10 µM [activator, single point]
Nc1cc(Nc2ccc(Br)cc2)nc(N)n1 0.501 µM [activator, full curve, poor fit]
CCCCC(=O)OCC(=O)c1[nH]c(C)c(C(C)=O)c1C 3.16 µM [activator, single point]
CSc1ccccc1NC(=O)c1cccnc1 28.2 µM [activator, single point]
CC(=O)N[C@@H](Cc1c[nH]c2ccccc12)C(=O)NC1CC1 0.891 µM [activator, full curve, poor fit]
Cc1ccc(S(=O)(=O)c2cc3c(=O)n4ccccc4nc3n(CCc3ccccc3)c2=N)cc1 3.16 µM [activator, partial curve, poor fit]
O=C(c1ccc2ccccc2c1)C1CCCN(S(=O)(=O)c2cccnc2)C1 (centres undefined) 12.6 µM [activator, single point]
Cc1cc(C)nc(NC(=S)Nc2cccc(Cl)c2Cl)c1 3.16 µM [activator, partial curve, poor fit]
Cc1ccc(C)c(NS(=O)(=O)c2ccccc2C)c1 5.62 µM [activator, partial curve, poor fit]
N#Cc1ccccc1CSc1nnc(-c2ccncc2)o1 22.4 µM [activator, partial curve, poor fit]
COc1ccc(N2CCN(C(=O)CCNC(=O)c3ccc(C(C)(C)C)cc3)CC2)cc1 3.55 µM [activator, single point]
COc1cccc(CC2(CO)CCCN(Cc3ccc(OC(F)F)cc3)C2)c1 (centres undefined) 31.6 µM [activator, single point]
COc1ccccc1COc1ccc2c(C)c(CCC(=O)O)c(=O)oc2c1C 28.2 µM [activator, partial curve, poor fit]

Molecules listed so far that contain a Cl atom:
Potency, inconclusive:
COc1cccc(-c2nc(CCl)cs2)c1OC 0.501 µM [activator, full curve, poor fit]
O=C1NC(=O)C(c2ccc(Cl)cc2)N1 (centres undefined) 11.2 µM [activator, single point]
CSC1=N/C(=C\c2ccccc2Cl)C(=O)N1N(C)C 11.2 µM [activator, single point]
Clc1ccc(CNC2CCN(Cc3ccccc3)CC2)cc1 3.98 µM [activator, single point]
CC(=O)NC1=NN(C(C)=O)C(C)(CCS(=O)(=O)c2ccc(Cl)c(Cl)c2)S1 (centres undefined) 11.2 µM [activator, single point]
COc1ccc(C2C3C(=O)N(N(C)c4ncc(C(F)(F)F)cc4Cl)C(=O)C3ON2C)cc1 (centres undefined) 3.98 µM [activator, single point]
Cc1cc(C)nc(NC(=S)Nc2cccc(Cl)c2Cl)c1 3.16 µM [activator, partial curve, poor fit]

Next part:

Potency, inactive:
Cn1c(N)c(C(=O)CSc2ccccn2)c(=O)n(C)c1=O
Cc1ccc(C(=O)OCC(=O)NCc2ccco2)cc1S(=O)(=O)N1CCOCC1
Cc1ccc[n+](C(C)C(=O)Nc2ccc(C)c(C)c2)c1 (centres undefined)
COc1ccc([C@H]2N[C@]3(CCCN(Cc4ccc(C(F)(F)F)cc4)C3=O)[C@H]3C(=O)N(Cc4ccccc4)C(=O)[C@@H]23)cc1
COc1cc2c(cc1NC(=O)CSc1nc3cc(Cl)ccc3s1)oc1ccccc12
CCNC(=S)NNC(=O)Nc1ccccc1
COc1ccc2c(c1)OC[C@H]1[C@H]2N2C(=O)CN(Cc3ccc(C)cc3)C(=O)[C@@]2(C)[C@H]1c1ccccc1
O=C(NCCN1C(=O)S/C(=C\c2ccccc2Cl)C1=O)C1=COCCO1
CCCC(O)(CCC)C(=O)NN(C(=O)OC)c1ccccc1
COc1ccc(-c2cc3ccc(OCC(C)=O)cc3oc2=O)cc1
O=C(COC(=O)c1cccc2ccccc12)Nc1ncc(C(F)(F)F)cc1Cl
COc1cc2c3nnc(-c4ccc(F)cc4)c-3cn(Cc3cccc(F)c3)c2cc1OC
O=C(Nc1ccccc1)Nc1cccc2cccnc12
CCCC[C@@H]1CNCCN1CCc1cccc2ccccc12
CC(C)(SC(=S)N1CCCCCC1)C(=O)O
CCOC(=O)c1sc(NC(=O)CN(CC(C)C)CC(C)C)c(C(=O)OCC)c1C
CCOc1ccc(-c2c(C(=O)N/N=C/C3CC=CCC3)nnn2-c2nonc2N)cc1 (centres undefined)
COc1cccc2cc(-c3n[nH]c(=S)n3C)oc12
Cc1cc(C(=O)COc2ccc(F)cc2Br)c(C)n1C1CC1
CCOc1cc2c(C#N)c(N3CCNCC3)nc(N)c2c(N)n1
O=C(c1ccc(S(=O)(=O)N2CCCC2)cc1)N1CCN(Cc2ccc3c(c2)OCO3)CC1

3 structures already listed, ordered by heavy-atom count, ascending:
Potency, inactive:
O=C(NCCN1C(=O)S/C(=C\c2ccccc2Cl)C1=O)C1=COCCO1
COc1ccc2c(c1)OC[C@H]1[C@H]2N2C(=O)CN(Cc3ccc(C)cc3)C(=O)[C@@]2(C)[C@H]1c1ccccc1
COc1ccc([C@H]2N[C@]3(CCCN(Cc4ccc(C(F)(F)F)cc4)C3=O)[C@H]3C(=O)N(Cc4ccccc4)C(=O)[C@@H]23)cc1

Next part:

activation, inactive:
O=C(CSc1nc2cc3ccccc3cc2[nH]1)Nc1ccc(F)cc1 -5.26% [at 7.66 µM]
